Results published in PubChem BioAssay AID588590 (National Center for Advancing Translational Sciences (NCATS), 2011).
The campaign covered roughly 390,000 compounds. About 4,000 (1%) were called active. The shares of active, inactive and inconclusive entries below differ from those in the screen. Calls come from the whole dose curve; as a rule, active = well fitted inhibition curve with a large enough effect; inconclusive = small, poorly fitted or top-dose-only effect, or another doubt; inactive = no such curve, though single readings can be large or run the other way. Potencies of inconclusive entries are doubtful fits and often do not repeat.

Amino acid sequences for entries named in this document (tags omitted). A change or cut given only in a name is not applied to a line headed by its entry.
UniProt Q9UNA4: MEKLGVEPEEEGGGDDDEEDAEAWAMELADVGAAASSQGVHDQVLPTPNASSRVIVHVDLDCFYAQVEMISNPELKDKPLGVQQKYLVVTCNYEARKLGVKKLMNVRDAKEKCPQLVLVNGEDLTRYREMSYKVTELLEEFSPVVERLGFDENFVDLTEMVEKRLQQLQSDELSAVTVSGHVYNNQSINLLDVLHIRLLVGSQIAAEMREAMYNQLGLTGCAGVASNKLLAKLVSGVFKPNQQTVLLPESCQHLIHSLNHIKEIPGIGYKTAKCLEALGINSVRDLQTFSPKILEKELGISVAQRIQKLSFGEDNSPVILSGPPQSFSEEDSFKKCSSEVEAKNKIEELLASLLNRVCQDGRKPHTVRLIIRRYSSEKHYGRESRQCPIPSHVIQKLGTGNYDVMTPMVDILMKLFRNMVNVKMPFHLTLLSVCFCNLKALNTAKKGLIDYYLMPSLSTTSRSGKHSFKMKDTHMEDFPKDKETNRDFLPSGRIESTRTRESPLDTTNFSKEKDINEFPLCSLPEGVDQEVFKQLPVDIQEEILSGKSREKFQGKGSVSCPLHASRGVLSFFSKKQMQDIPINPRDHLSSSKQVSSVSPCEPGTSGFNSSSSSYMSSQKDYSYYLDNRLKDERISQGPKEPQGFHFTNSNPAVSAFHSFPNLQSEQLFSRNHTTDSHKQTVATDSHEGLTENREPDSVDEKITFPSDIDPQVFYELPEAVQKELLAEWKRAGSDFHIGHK

Target: DNA polymerase iota (Homo sapiens) (UniProt Q9UNA4)
Assay: qHTS for Inhibitors of Polymerase Iota
Details: Pol iota fluorescent replication assay, 10 min; series mostly up to 115 µM; activity, negative = inhibition: at the top concentration
Summary of the method: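 Fluorescent replication assay read twice, at 0 min and 10 min after adding 50 nM (final) substrate. Enzyme (10 nM) and compounds were first incubated 15 min at room temperature; enzyme-free buffer wells were negative controls.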
Potency is the fitted concentration of half-maximal effect.

Potency, inconclusive:
CCN(CC)c1ccc(C(=O)OCc2cc(=O)oc3cc(O)ccc23)cc1 39.8 µM [inhibitor, single point]
CCN(CC)CCN1C(=O)C(O)=C(C(=O)c2cc3cccc(OC)c3o2)C1c1ccc(F)cc1 (stereo not drawn) 31.6 µM [inhibitor, single point]
Cc1ccc(C(=O)O)cc1NC(=S)NC(=O)c1ccc(-c2ccccc2)cc1 10 µM [inhibitor, partial curve, poor fit]
CCc1cc(SC#N)cc(C)c1N 17.8 µM [inhibitor, single point]
O=C(O)c1ccc2nc(CO)[nH]c2c1 12.6 µM [inhibitor, partial curve, poor fit]
COc1ccc(/C=N/Nc2snc(SC)c2C#N)cc1OC 14.1 µM [inhibitor, full curve, poor fit]
Cc1ccsc1C1C2=C(CC(C)(C)CC2=O)Nc2ncnn21 (stereo not drawn) 15.8 µM [inhibitor, full curve, poor fit]
O=C(N/N=C/c1ccoc1)c1ccc(Cl)cc1 31.6 µM [inhibitor, partial curve]
O=C(c1cnn(-c2ccccc2)c1)c1ccc2ccccc2c1O 39.8 µM [inhibitor, single point]
Cc1c(C)n(CC(O)CN2CCCCC2)c2ccccc12 (stereo not drawn) 25.1 µM [inhibitor, single point]
Cc1cc(C)c([N+](=O)[O-])cc1-c1ccc(/C=N/c2c(-c3ccco3)nc3ccccn23)o1 17.8 µM [inhibitor, full curve, poor fit]
CC(OC(=O)c1cccc(S(=O)(=O)N2CCN(C)CC2)c1)C(=O)Nc1ccc(C(N)=O)cc1 (stereo not drawn) 89.1 µM [inhibitor, single point]
O=C(/C=C/c1ccccn1)c1cc(Cl)cc(Cl)c1O 22.4 µM [inhibitor, single point]
Cc1ccc(C(=O)CN(CCCC(N)=O)S(=O)(=O)c2ccc([N+](=O)[O-])cc2)cc1 22.4 µM [inhibitor, single point]
CC1CCC(C(=O)c2c(O)c3ccccc3oc2=O)CC1 (stereo not drawn) 15.8 µM [inhibitor, partial curve, poor fit]
CCOc1ccc2nc(SCC(=O)Nc3ccc4c(c3)OCCO4)[nH]c2c1 20 µM [inhibitor, full curve, poor fit]
O=C(Nc1cccc(S(=O)(=O)Nc2ccc(Cl)cc2)c1)c1ccccn1 39.8 µM [inhibitor, partial curve, poor fit]
Cc1ccc2[nH]c(C(=O)O)c(NC(=O)CN3CCN(c4cccc(C)c4C)CC3)c2c1 2.82 µM [inhibitor, full curve, poor fit]
O=C(CC(Nc1cccc(Cl)c1Cl)C(=O)O)c1ccccc1 (stereo not drawn) 14.1 µM [inhibitor, partial curve, poor fit]
CNS(=O)(=O)c1cccc(C(=O)OCC(=O)N2c3ccccc3NC(=O)C2(C)C)c1 20 µM [inhibitor, partial curve, poor fit]
CC1(OC(=O)CCc2ccccc2)C(=O)C=C2C=C(c3ccc(C#N)cc3)N(CC3CC3)C=C2C1=O (stereo not drawn) 11.2 µM [inhibitor, partial curve, poor fit]
O=C(NCCc1cccc(F)c1)/C(=C/c1cccnc1)NC(=O)c1ccccc1 79.4 µM [inhibitor, partial curve, poor fit]
O=C1[C@H]2C(c3ccccc3)=NN(c3ccccc3)[C@H]2C(=O)N1c1ccccc1 89.1 µM [inhibitor, partial curve, poor fit]
O=C(NCc1ccc(Cl)cc1)c1cc2c(nc3sccn32)s1 4.47 µM [inhibitor, partial curve, poor fit]
CCN(Cc1ccccc1)Cc1c(O)ccc2c(=O)c(-c3ccccc3Cl)coc12 89.1 µM [inhibitor, partial curve, poor fit]
Cc1cc(C)c(OCCOCCN2CCNCC2)c(C)c1 22.4 µM [inhibitor, partial curve, poor fit]
COc1ccccc1CNN 35.5 µM [inhibitor, single point]
Cc1cc(C)n2nc(SCN3C(=O)c4ccccc4C3=O)nc2n1 79.4 µM [inhibitor, partial curve]
O=C(c1cn(-c2ccccc2)nc1-c1ccncc1)n1nnc2ccccc21 44.7 µM [inhibitor, single point]
CC(C)(C)c1nnc(SCC(=O)Nc2ccc(N3CCCCC3)cc2)n1N 39.8 µM [inhibitor, single point]
CCOC(=O)COc1cccc2c(=O)n(CC(=O)NCCc3ccccc3)ccc12 100 µM [inhibitor, partial curve, poor fit]
CCCOC(=O)c1ccc(NC(=O)Cc2cccs2)cc1 56.2 µM [inhibitor, partial curve, poor fit]
CCSc1nnc(NC(=O)C2C3C=CC(C3)C2C(=O)O)s1 (stereo not drawn) 79.4 µM [inhibitor, partial curve, poor fit]
Cn1c2c(c(=O)n(C)c1=O)C(c1ccccc1F)C(C#N)=C(N)O2 (stereo not drawn) 39.8 µM [inhibitor, single point]
COc1ccccc1N(/N=C1\Sc2ccccc2C1=O)C(C)=O 89.1 µM [inhibitor, single point]
COc1ccc(Cn2c(CCC(=O)Nc3cccc(Cl)c3)nc3cccnc32)cc1 100 µM [inhibitor, single point]
CCN(CC)CCNC(=O)c1cc2cc3ccc(OC)cc3nc2o1 89.1 µM [inhibitor, partial curve, poor fit]
O=C(N/N=C/C=C\c1ccco1)c1ccccn1 2.51 µM [inhibitor, full curve, poor fit]
O=C(OCCCN=C1NS(=O)(=O)c2ccccc21)C1CC(=O)N(c2ccc(Cl)cc2)C1 (stereo not drawn) 39.8 µM [inhibitor, single point]
COc1cccc(/C=C2\SC(=S)N(N3C(=O)CCCC3=O)C2=O)c1 15.8 µM [inhibitor, partial curve, poor fit]
CN(C)C(CNC(=O)c1cccc(S(=O)(=O)Nc2ccc(Br)cc2)c1)c1ccco1 (stereo not drawn) 35.5 µM [inhibitor, single point]
Cc1ccc(C)c(NC(=O)C2C3CCCC2C3c2ccccc2)c1 (stereo not drawn) 3.55 µM [inhibitor, partial curve, poor fit]
O=C(NCc1noc2ccccc12)N1CCN(c2ccccc2F)CC1 70.8 µM [inhibitor, single point]
Oc1ccc2ccccc2c1C=Nc1ccccc1 39.8 µM [inhibitor, single point]

2 compounds drawn at random from those above:
Potency, inconclusive:
CCN(CC)c1ccc(C(=O)OCc2cc(=O)oc3cc(O)ccc23)cc1 39.8 µM [inhibitor, single point]
COc1ccc(Cn2c(CCC(=O)Nc3cccc(Cl)c3)nc3cccnc32)cc1 100 µM [inhibitor, single point]

Next part:

Potency, active:
CN(C)C(CNC(=O)CCOc1ccccc1)c1ccco1 (stereo not drawn) 31.6 µM
CCOc1ccc(C(c2c(C)[nH]n(-c3ccccc3)c2=O)c2c(C)[nH]n(-c3ccccc3)c2=O)cc1OC 0.708 µM
COc1ccc(CCNC(=O)c2cc(-c3ccco3)nc3ccccc23)cc1 22.4 µM

activity, negative = inhibition, inactive:
CN(C)Cc1cc(C(C)(C)C)cc(C(C)(C)C)c1O 1.16%
C=CCn1c(SCC(=O)NCC2CCCO2)nc2scc(-c3ccc(OC)cc3)c2c1=O (stereo not drawn) 18.9%
COc1ccc(-c2onc3ccc(Br)cc23)cc1 22%
CC(C)OCCCn1c(=O)c2ccccc2n2c(-c3ccc(F)c(F)c3)nnc12 -7.11%
COc1cn(CC(=O)Nc2ccc(C)cc2C)c(CN2CCCCC2)cc1=O 1.01%
Cn1c(SCc2ccccc2)nccc1=O 51.8%
O=C(CSc1nc2c([nH]c3ccccc32)c(=O)n1-c1cccc(C(F)(F)F)c1)N1CCCC1 8.12%
Cc1cc(C)c(NC(=O)Cn2nnc(-c3nc(-c4ccncc4)no3)c2N)c(C)c1 19.8%
Cc1cc2c(cc1S(=O)(=O)N1CCC(C(N)=O)CC1)OCC(=O)N2 4.17%
CCC(C)NC(=O)c1cccc(OCc2c(C)noc2C)c1 (stereo not drawn) 14.7%
Cc1ccnc2nc(C(=O)OCC(=O)NC3CCCC(C)C3C)nn12 (stereo not drawn) 0.87%
COc1cc(OC)c(NC(=O)Nc2sc3nc4n(c(=O)c3c2C)CCC(C)CC4)cc1Cl (stereo not drawn) 33.8%
CCOc1ccccc1NC(=O)C(C)n1nnc2sc3c(c2c1=O)CCCC3 (stereo not drawn) 14.1%
Cc1nn(CCc2nn[nH]n2)c2nc(-c3ccc(C4CCCCC4)cc3)cc(C(F)(F)F)c12 28.9%
O=C(NCc1ccccc1)c1ccc(Cn2c(=O)c3cccn3c3cccnc32)cc1 -7.07%
O=C1NCCOC(=O)[C@@H](Cc2ccc(F)cc2)C/C=C\C[C@@H]1CC(=O)N(CCO)Cc1ccccc1 22.3%
Cc1ccc(Cn2cc3c(n2)-c2c(oc(C(=O)Nc4ccc(F)cc4F)c2C)CC3)cc1 45.1%
Cc1ccsc1-c1cc(C(=O)O)c2c(ccc3ccccc32)n1 83.5%
C=CC[C@H]1CC(C)=C[C@H](CC=C)N1 27.1%
O=C(CCn1cnc2onc(-c3ccc(F)cc3)c2c1=O)N1CCN(c2ccccc2)CC1 -13.7%
COc1cccc(OCc2nc3ccccc3n2C)c1 -5.21%

A draw from above in order of formula weight, falling.
activity, negative = inhibition, inactive:
COc1cc(OC)c(NC(=O)Nc2sc3nc4n(c(=O)c3c2C)CCC(C)CC4)cc1Cl (stereo not drawn) 33.8%
O=C(CCn1cnc2onc(-c3ccc(F)cc3)c2c1=O)N1CCN(c2ccccc2)CC1 -13.7%
O=C(NCc1ccccc1)c1ccc(Cn2c(=O)c3cccn3c3cccnc32)cc1 -7.07%
Cc1cc(C)c(NC(=O)Cn2nnc(-c3nc(-c4ccncc4)no3)c2N)c(C)c1 19.8%
CC(C)OCCCn1c(=O)c2ccccc2n2c(-c3ccc(F)c(F)c3)nnc12 -7.11%
COc1cn(CC(=O)Nc2ccc(C)cc2C)c(CN2CCCCC2)cc1=O 1.01%
CCC(C)NC(=O)c1cccc(OCc2c(C)noc2C)c1 (stereo not drawn) 14.7%
CN(C)Cc1cc(C(C)(C)C)cc(C(C)(C)C)c1O 1.16%
Cn1c(SCc2ccccc2)nccc1=O 51.8%
C=CC[C@H]1CC(C)=C[C@H](CC=C)N1 27.1%
